Assay results reported in paper PMC11948031.
Results are given in words; binding and its absence hold for the method and conditions named. Binding seen in cells or lysates may run through a third protein. Some results given as binding are weak or reduced against the parent protein; the word gives no strength.

Chains of the proteins cited; added tags and fusions are not shown.
UniProt P43114: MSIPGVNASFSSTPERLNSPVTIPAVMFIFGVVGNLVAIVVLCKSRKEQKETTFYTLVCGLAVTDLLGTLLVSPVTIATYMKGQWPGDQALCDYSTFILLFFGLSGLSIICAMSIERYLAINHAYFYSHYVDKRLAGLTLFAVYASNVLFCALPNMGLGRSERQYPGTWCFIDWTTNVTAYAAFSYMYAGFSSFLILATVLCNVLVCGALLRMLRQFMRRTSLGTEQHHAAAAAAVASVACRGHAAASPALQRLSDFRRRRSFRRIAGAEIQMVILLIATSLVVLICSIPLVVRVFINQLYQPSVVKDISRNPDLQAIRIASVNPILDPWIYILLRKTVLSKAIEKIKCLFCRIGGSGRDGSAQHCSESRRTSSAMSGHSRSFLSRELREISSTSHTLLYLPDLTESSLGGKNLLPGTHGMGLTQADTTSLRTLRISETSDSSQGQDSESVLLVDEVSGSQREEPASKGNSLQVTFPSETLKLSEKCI

T1: TGF-β1 receptor TGFBRII (rat (endogenous in neonatal rat cardiac fibroblasts)) (UniProt P38438)
T1 sequence: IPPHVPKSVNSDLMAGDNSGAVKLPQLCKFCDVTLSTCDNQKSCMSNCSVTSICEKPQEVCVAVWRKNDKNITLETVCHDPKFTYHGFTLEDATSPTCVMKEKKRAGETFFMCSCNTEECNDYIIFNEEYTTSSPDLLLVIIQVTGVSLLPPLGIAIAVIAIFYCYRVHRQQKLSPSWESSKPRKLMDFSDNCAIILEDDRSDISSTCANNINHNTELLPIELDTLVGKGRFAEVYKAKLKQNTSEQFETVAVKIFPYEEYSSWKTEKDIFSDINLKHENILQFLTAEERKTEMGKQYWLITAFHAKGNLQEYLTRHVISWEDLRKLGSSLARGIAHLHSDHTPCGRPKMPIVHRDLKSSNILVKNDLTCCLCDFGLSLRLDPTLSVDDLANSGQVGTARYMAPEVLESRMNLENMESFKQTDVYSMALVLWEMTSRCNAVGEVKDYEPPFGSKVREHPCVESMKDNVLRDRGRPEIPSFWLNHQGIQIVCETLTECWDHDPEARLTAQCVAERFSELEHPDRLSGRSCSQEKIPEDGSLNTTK


Target: T1, TGF-β1 receptor TGFBRII (rat (endogenous in neonatal rat cardiac fibroblasts))
Test: co-IP; endogenous proteins; NRCF lysate incubated overnight at 4 °C with protein A/G beads carrying mouse anti-TGFBRII (5 µg/mL); blots for EP4, TGFBRI and TGFBRII; cells untreated, or pretreated with or without grapiprant (1 µM, 30 min) and then treated with TGF-β1 (10 ng/mL, 3 h)

Row | binding | Molecule
1 | binds | Prostaglandin E2 (PGE2) receptor EP4 (from UniProt P43114 1-488)
2 | binds | TGFBRI (receptor, UniProt P80204 30-501) LQCFCHLCTKDNFTCETDGLCFVSVTETTDKVIHNSMCIAEIDLIPRDRPFVCAPSSKTGAVTYCCNQDHCNKIELPTTGPFSEKQSAGLGPVELAAVIAGPVCFVCIALMLMVYICHNRTVIHHRVPNEEDPSLDRPFISEGTTLKDLIYDMTTSGSGSGLPLLVQRTIARTIVLQESIGKGRFGEVWRGKWRGEEVAVKIFSSREERSWFREAEIYQTVMLRHENILGFIAADNKDNGTWTQLWLVSDYHEHGSLFDYLNRYTVTVEGMIKLALSTASGLAHLHMEIVGTQGKPAIAHRDLKSKNILVKKNGTCCIADLGLAVRHDSATDTIDIAPNHRVGTKRYMAPEVLDDSINMKHFESFKRADIYAMGLVFWEIARRCSIGGIHEDYQLPYYDLVPSDPSVEEMRKVVCEQKLRPNIPNRWQSCEALRVMAKIMRECWYANGAARLTALRIKKTLSQLSQQEGIKM
